Data as given in US20240025959A1.
These are yes or no findings as the source states them, for the method shown. Binding seen in cells or lysates may run through a third protein. Some entries that bind do so weakly or less than the wild type.

The chains behind the UniProt entries cited, without tags or fusion partners. Residues count along the entry.
UniProt P51149: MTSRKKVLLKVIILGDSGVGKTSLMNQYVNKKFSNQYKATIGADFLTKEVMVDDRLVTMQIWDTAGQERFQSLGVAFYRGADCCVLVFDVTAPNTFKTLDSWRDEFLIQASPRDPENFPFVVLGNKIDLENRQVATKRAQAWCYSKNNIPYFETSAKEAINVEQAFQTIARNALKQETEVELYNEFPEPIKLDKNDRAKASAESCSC
UniProt Q9NPP4: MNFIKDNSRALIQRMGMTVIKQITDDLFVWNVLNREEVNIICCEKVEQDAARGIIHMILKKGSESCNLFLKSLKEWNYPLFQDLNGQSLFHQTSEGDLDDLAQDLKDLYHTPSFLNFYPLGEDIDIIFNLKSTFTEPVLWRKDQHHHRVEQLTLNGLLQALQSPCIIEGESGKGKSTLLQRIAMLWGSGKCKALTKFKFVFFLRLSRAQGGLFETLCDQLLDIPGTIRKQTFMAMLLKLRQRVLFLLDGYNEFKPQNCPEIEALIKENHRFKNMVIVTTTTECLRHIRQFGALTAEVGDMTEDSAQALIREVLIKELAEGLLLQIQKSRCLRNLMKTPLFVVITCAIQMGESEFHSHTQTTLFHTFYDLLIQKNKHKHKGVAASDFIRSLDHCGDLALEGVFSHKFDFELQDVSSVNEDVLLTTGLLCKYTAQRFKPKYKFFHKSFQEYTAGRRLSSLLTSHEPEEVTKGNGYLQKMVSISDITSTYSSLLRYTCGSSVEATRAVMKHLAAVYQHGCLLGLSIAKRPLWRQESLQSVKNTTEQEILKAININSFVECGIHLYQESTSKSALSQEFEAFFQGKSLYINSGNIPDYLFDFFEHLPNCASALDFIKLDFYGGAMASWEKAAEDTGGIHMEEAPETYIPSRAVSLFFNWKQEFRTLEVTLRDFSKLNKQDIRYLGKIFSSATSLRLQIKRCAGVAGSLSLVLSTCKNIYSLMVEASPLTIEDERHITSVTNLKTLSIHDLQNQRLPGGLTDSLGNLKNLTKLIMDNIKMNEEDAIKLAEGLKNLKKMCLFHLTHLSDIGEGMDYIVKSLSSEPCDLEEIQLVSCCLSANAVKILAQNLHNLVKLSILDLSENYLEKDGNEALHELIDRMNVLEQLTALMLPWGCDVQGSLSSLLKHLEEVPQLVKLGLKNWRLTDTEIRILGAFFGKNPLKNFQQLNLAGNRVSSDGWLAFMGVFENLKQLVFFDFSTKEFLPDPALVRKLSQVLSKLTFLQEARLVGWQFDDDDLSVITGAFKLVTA
UniProt P02649, residues 19-317: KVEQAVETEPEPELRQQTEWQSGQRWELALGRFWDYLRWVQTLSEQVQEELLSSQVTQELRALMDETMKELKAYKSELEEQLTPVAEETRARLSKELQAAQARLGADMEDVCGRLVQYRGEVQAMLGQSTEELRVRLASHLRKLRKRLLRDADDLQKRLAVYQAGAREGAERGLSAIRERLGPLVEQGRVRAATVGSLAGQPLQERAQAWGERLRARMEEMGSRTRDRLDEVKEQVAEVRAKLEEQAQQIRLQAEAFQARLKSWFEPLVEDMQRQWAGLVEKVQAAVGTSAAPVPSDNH
UniProt O60260: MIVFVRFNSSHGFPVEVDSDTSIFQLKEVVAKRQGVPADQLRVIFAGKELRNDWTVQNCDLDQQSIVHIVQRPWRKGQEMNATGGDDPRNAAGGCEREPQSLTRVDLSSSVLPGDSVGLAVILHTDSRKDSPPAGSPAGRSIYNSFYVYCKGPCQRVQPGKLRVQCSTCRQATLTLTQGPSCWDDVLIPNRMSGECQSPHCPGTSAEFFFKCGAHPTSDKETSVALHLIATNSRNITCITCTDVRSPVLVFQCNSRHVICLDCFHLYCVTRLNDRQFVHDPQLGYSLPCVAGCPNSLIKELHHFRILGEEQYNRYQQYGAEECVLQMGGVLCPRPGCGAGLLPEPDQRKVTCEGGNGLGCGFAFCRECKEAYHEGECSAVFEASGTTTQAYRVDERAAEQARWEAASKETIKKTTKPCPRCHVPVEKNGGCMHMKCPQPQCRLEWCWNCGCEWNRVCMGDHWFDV
UniProt Q9BXM7: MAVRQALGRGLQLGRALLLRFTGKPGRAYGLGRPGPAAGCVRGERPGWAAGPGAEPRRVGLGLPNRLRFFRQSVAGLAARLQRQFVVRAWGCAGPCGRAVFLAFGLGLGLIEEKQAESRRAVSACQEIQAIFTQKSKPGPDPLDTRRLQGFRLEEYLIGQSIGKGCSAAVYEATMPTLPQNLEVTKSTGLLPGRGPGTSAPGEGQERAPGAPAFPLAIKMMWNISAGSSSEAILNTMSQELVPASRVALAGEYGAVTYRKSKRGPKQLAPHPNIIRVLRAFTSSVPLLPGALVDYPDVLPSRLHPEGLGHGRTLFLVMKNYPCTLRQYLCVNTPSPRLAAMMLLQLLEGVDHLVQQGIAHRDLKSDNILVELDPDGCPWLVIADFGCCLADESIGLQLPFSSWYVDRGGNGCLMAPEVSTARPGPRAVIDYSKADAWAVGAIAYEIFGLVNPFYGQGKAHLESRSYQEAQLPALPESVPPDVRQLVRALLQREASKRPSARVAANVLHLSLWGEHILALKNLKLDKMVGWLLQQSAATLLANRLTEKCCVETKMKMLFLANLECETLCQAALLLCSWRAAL
UniProt Q13148: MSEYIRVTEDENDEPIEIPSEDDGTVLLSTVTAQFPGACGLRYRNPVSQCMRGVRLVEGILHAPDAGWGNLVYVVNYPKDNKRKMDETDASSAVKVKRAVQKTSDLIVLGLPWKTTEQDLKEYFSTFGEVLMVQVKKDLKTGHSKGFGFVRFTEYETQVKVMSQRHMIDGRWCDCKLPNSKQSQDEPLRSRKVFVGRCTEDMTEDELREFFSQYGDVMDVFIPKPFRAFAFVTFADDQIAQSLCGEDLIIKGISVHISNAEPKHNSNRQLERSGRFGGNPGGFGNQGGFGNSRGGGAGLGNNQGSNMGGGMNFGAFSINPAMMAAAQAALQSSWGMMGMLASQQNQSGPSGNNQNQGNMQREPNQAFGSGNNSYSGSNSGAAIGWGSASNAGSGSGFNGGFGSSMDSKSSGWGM
UniProt Q99497: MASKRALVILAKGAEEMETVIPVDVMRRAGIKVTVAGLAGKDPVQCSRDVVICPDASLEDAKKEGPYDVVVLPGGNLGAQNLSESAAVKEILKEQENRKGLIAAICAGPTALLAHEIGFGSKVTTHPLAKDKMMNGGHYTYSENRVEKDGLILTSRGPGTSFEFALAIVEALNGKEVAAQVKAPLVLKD

Key:
[1] = target: T1, MEKK3 (mitogen-activated protein kinase kinase kinase 3) (UniProt Q99759); test: co-IP with anti-Flag beads and immunoblot; 293T cells transfected with the indicated Flag-tagged plasmid (FIG. 12B)
T1 sequence (looked up): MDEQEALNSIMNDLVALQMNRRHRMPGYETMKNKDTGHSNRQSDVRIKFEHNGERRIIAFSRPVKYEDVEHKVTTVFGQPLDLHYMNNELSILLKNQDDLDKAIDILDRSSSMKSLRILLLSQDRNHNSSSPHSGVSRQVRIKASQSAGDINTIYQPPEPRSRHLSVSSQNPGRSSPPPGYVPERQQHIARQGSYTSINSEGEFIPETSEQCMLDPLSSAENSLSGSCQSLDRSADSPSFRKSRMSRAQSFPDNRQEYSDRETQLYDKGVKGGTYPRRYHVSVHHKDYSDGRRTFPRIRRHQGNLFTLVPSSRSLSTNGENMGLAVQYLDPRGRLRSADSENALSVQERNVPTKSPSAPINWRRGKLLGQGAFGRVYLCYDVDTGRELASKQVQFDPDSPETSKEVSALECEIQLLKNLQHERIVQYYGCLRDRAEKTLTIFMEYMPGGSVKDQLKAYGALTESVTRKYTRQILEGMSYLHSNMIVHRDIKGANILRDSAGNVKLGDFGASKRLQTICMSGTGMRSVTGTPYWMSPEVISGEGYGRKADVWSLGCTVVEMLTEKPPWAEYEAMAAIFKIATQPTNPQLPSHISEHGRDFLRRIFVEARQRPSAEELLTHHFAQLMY

[2] = target: T1, MEKK3 (mitogen-activated protein kinase kinase kinase 3); test: discussion of Example 1; co-IP in 293T cells
[3] = target: RAB7A (human) (UniProt P51149); test: co-IP with anti-Flag beads and immunoblot; HEK293T cells co-transfected with HA-Beclin 2 and Flag-tagged SNARE or RAB proteins (FIG. 32A)
[4] = target: T2, RAB32 (human) (UniProt Q13637); test: as above
T2 sequence (looked up): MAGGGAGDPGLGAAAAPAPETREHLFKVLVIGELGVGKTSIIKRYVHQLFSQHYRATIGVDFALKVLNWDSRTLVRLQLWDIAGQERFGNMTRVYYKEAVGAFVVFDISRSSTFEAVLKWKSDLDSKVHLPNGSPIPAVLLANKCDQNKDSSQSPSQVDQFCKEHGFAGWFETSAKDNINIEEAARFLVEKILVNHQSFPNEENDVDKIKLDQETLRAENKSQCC

[5] = target: NLRC4 (human) (UniProt Q9NPP4); test: summary of Example 1; co-IP in HEK293T cells
[6] = target: APP (UniProt P05067); test: co-IP with anti-FLAG beads and western blot in transfected 293T cells (FIG. 37A)
[7] = target: MKK2 (UniProt P36507); test: co-IP with anti-Flag beads and immunoblot; 293T cells co-transfected with Flag-Beclin 2 and an HA-tagged plasmid (FIG. 8A)
[8] = target: MKK1 (UniProt Q02750); test: as above
[9] = target: T3, MKK3 (UniProt P46734); test: as above
T3 sequence (looked up): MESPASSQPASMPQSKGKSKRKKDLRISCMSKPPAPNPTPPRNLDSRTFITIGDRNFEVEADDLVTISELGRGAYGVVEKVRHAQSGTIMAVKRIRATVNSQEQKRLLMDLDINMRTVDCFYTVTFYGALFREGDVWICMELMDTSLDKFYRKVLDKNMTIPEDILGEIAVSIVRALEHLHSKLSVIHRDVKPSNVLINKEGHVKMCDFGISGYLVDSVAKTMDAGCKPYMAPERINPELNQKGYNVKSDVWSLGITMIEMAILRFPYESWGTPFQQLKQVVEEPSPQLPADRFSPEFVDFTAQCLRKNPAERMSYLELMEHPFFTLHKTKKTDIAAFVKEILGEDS

[10] = target: APP (UniProt P05067); test: co-IP with anti-FLAG beads and western blot (anti-FLAG, anti-HA); 293T cells transfected with BECN2 along with APP, 36 h (FIG. 37A)
[11] = target: NLRC4 (human) (UniProt Q9NPP4); test: co-IP with anti-Flag beads and immunoblot; HEK293T cells co-transfected with HA-Beclin 2 and a Flag-tagged plasmid (FIG. 25A)
[12] = target: APOE (UniProt P02649); test: co-IP with anti-Flag beads and immunoblot; 293T cells co-transfected with Flag-Beclin 2 and an HA-tagged plasmid (FIG. 35A)
[13] = target: PARK2 (UniProt O60260); test: as above
[14] = target: PINK1 (UniProt Q9BXM7); test: as above
[15] = target: TDP43 (UniProt Q13148); test: as above
[16] = target: PARK7 (UniProt Q99497); test: as above
[17] = target: RAB7A (human) (UniProt P51149); test: co-IP with anti-Flag beads and immunoblot; 293T cells co-transfected with HA-Beclin 2 and a Flag-tagged plasmid (FIG. 13C)
[18] = target: T2, RAB32 (human); test: as above

Measured: binding

B1: ATG9A (human) (protein, UniProt Q7Z3C6 1-839, looked up)
chain: MAQFDTEYQRLEASYSDSPPGEEDLLVHVAEGSKSPWHHIENLDLFFSRVYNLHQKNGFTCMLIGEIFELMQFLFVVAFTTFLVSCVDYDILFANKMVNHSLHPTEPVKVTLPDAFLPAQVCSARIQENGSLITILVIAGVFWIHRLIKFIYNICCYWEIHSFYLHALRIPMSALPYCTWQEVQARIVQTQKEHQICIHKRELTELDIYHRILRFQNYMVALVNKSLLPLRFRLPGLGEAVFFTRGLKYNFELILFWGPGSLFLNEWSLKAEYKRGGQRLELAQRLSNRILWIGIANFLLCPLILIWQILYAFFSYAEVLKREPGALGARCWSLYGRCYLRHFNELEHELQSRLNRGYKPASKYMNCFLSPLLTLLAKNGAFFAGSILAVLIALTIYDEDVLAVEHVLTTVTLLGVTVTVCRSFIPDQHMVFCPEQLLRVILAHIHYMPDHWQGNAHRSQTRDEFAQLFQYKAVFILEELLSPIVTPLILIFCLRPRALEIIDFFRNFTVEVVGVGDTCSFAQMDVRQHGHPQWLSAGQTEASVYQQAEDGKTELSLMHFAITNPGWQPPRESTAFLGFLKEQVQRDGAAASLAQGGLLPENALFTSIQSLQSESEPLSLIANVVAGSSCRGPPLPRDLQGSRHRAEVASALRSFSPLQPGQAPTGRAHSTMTGSGVDARTASSGSSVWEGQLQSLVLSEYASTEMSLHALYMHQLHKQQAQAEPERHVWHRRESDESGESAPDEGGEGARAPQSIPRSASYPCAAPRPGAPETTALHGGFQRRYGGITDPGTVPRVPSHFSRLPLGGWAEDGQSASRHPEPVPEEGSEDELPPQVHKV
binds: [1] | [2]

B2: Beclin 2 (human, full length) (protein)
chain: MSSIRFLCQRCHQALKLSGSSESRSLPAAPAPTSGQAEPGDTREPGVTTREVTDAEEQQDGASSRSPPGDGSVSKGHANIFTLLGELGAMHMLSSIQKAAGDIFDIVSGQAVVDHPLCEECTDSLLEQLDIQLALTEADSQNYQRCLETGELATSEDEAAALRAELRDLELEEARLVQELEDVDRNNARAAADLQAAQAEAAELDQQERQHYRDYSALKRQQLELLDQLGNVENQLQYARVQRDRLKEINCFTATFEIWVEGPLGVINNFRLGRLPTVRVGWNEINTAWGQAALLLLTLANTIGLQFQRYRLIPCGNHSYLKSLTDDRTELPLFCYGGQDVFLNNKYDRAMVAFLDCMQQFKEEAEKGELGLSLPYGIQVETGLMEDVGGRGECYSIRTHLNTQELWTKALKFMLINFKWSLIWVASRYQK
not listed: [1] | [2]
binds: all other assays above
